{"source": "patent US6841563B1", "about": "“Aryloxy propanolamines for improving livestock production” (Eli Lilly and Company, priority 1999, dated 2005)", "assay": "28-day cattle study, orally administered Compound 6: growth and carcass measurements", "format": "in vivo", "method": "Thirty-two Angus crossbred steers were blocked by weight into a heavy (4 heaviest blocks, avg. initial BW=1226 lb. (557 kg)) and a light (4 lightest blocks, avg. initial BW=1164 lb. (528 kg)) replication. The steers within each block were assigned to one of four treatments (8 steers/treatment) to investigate the effects of orally administered Compound 6 on the growth and carcass measurements when fed to cattle for 28 days immediately prior to slaughter. The treatments included a CONTROL (0.0 mg Compound 6 per kg BW), and three levels of Compound 6 (LOW, 0.125 mg Compound 6 per kg BW; MED, 0.250 mg Compound 6 per kg BW; HIGH, 0.500 mg Compound 6 per kg BW). Compound 6 was mixed with ground corn and fed to the steers as a top dress on a portion of their daily feed. The CONTROL steers received a similar amount of a ground corn top dress. The steers were required to consume the initial feed and top dress before the remaining amount of feed was issued. The basal ration was a commercially available feed (19.3% CP, DM basis). Both feed and water were available ad libitum. The steers were individually housed in 12 ft×48 ft pens equipped with an individual feed bunk and automatic waterer. On day 28 the steers were weighed and a blood sample collected prior to being shipped for slaughter and subsequent carcass evaluation."}
{"compound": "CC(C)(Cc1ccc(Oc2ncccc2C(N)=O)cc1)NC[C@H](O)COc1cccc2[nH]ccc12", "note": "[Compound 6, (S)-2-[4-[2-[2-Hydroxy-3-(1H-indol-4-yloxy)propylamino]-2-methylpropyl]-phenoxy]-3-pyridinecarboxamide]", "values": [{"measurement": "color (Hunter a*, b*, L*) or pH of longissimus dorsi strip steaks", "setting": "14 day post-mortem aging, P>0.5", "result": "no treatment differences"}, {"measurement": "Subjective color, texture, and firmness of the longissimus dorsi muscle at the twelfth rib", "setting": "approximately 24 hour post-mortem, F-test P>0.07", "result": "no treatment differences"}]}
